Results are given in words; binding and its absence hold for the method and conditions named. In cells and extracts the contact can be indirect. Binding can be weak; no strength is given.
Biological target: Cyclin-dependent kinase 4
Experiment: co-IP; COS-1 cells cotransfected with pcDNA3-ccndx-myc and pcDNA3-cdk4-HA; lysate in IP-lysis buffer (150 mM NaCl, 20 mM HEPES pH 7.2, 1% NP-40) at 72 h; Protein A/G PLUS-Agarose; legend: IP with anti-HA, detection with anti-Myc (methods: IP with anti-myc, blot with anti-HA)

B1: zebrafish cyclin Dx (protein, UniProt D3GDI9 1-297)
chain: MSVSLWCEEDSGRDRTHQASVRAPWDPSASGQRVIQRLLQSEERYLPSSLYISLVQREPQRREELAKWTMEVCCECDCDESVFPLAVSLLDRYLSATLSLPVSPSCLAAACILLASKVTESDTVSADTLCAAAEYDFLSANLREMERVVLATLRWDVLAVTPQDFIPLFLRTLGELRDGDGHTGDFLTTMRRHGDTLVAMCVCDSRFLGTPPSLVAAAALNSALRGLRARSAGEMSLMTAALATLCQTDVALLQCCTELIDGALRERLRTGAQEQKDGDIEEEERASTPTDLREIDF
  binding: binds
